PubChem BioAssay AID504784 – Drosophila RNAi Screening Center – 2011
The screen tested about 17,000 reagents; this is an unselected part of those with a known target gene and a result. 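Each column is one replicate's B-score; the combined score over replicates was not deposited, so single values may mislead.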 Reagents against one gene are numbered here. Names joined by + are all predicted targets of the reagent. Not all columns of the deposit are shown.

- Assay: 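Fly genes whose silencing alters how much lipid cells keep in droplets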 (primary screen)
- Cell system: Drosophila Kc167 embryonic cells
- Knock-down reagent: long dsRNA against Drosophila genes, about 250 ng dsRNA per well
- Timing: 4 days
- Challenge: cells fed 400 µM oleic acid bound to BSA
- Detection: 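Microscope images give a droplet-to-nucleus area ratio, taken as log and converted to a screen-wide B-score; higher values mean greater lipid storage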
- Direction: droplet/nuclear area B-score: higher = more stored lipid (overstorage)

gene knocked down | reagent | droplet/nuclear area B-score, replicate 1 | droplet/nuclear area B-score, replicate 2
Egfrap (GeneID 3885637) | 1 | -0.255 | -1.79
Egfrap (GeneID 3885637) | 2 | -0.556 | -0.36
Prp5 (GeneID 32464) | 1 | -2.2 | 0.0321
CG31832 (GeneID 318970) | 1 | 0.946 | -1.35
Prosalpha1R + Prosalpha1 | 1 | -1.61 | 1.19
CR32745 (GeneID 5740857) | 1 | 0.294 | 4.41
Treh (GeneID 45368) | 1 | -0.563 | 1.05
Rh2 (GeneID 42261) | 1 | -5.11 | 1.19
AnxB9 (GeneID 42492) | 1 | -0.693 | -4.24
Lint-1 (GeneID 32055) | 1 | 1.6 | -0.216
inaF-A (GeneID 5740676) | 1 | -0.101 | -0.977
Mat1 (GeneID 36130) | 1 | 1.26 | 0.444
CG5773 (GeneID 37053) | 1 | 0.899 | 0.156
CSN1b (GeneID 40063) | 1 | -2.74 | -0.958
Exd2 (GeneID 41374) | 1 | -0.0322 | -0.807
rho-7 (GeneID 36281) | 1 | -1.2 | -0.00186
Taf7 (GeneID 40934) | 1 | -1.15 | -0.494
CG3108 (GeneID 31506) | 1 | -0.0559 | -0.0334
Tpr2 (GeneID 34984) | 1 | 3.34 | -1.31
CG15456 (GeneID 50123) | 1 | -1.59 | -1.14
CG13738 (GeneID 39541) | 1 | -0.847 | -0.778
O-fut2 (GeneID 31098) | 1 | -0.725 | –
Cht8 (GeneID 37390) | 1 | 1.99 | -0.882
Corp (GeneID 31764) | 1 | 1.96 | 0.0723
CG12384 (GeneID 36224) | 1 | 1.41 | -0.163
Efa6 (GeneID 42665) | 1 | -0.215 | 0.202
Efa6 (GeneID 42665) | 2 | 3.07 | 2.26
Efa6 (GeneID 42665) | 3 | -1.54 | 0.608
CG15011 (GeneID 38518) | 1 | 0.642 | -0.0177
Rsph4a (GeneID 37831) | 1 | 1.93 | 1.87
Gr59b (GeneID 117484) | 1 | 0.0154 | 0.683
PH4alphaMP (GeneID 43624) | 1 | 0.576 | -0.566
CG2225 (GeneID 35421) | 1 | -0.0657 | -0.0466
CG2225 (GeneID 35421) | 2 | 0.0821 | -2.11
NT1 (GeneID 38558) | 1 | -1.63 | -2.04
NT1 (GeneID 38558) | 2 | 4.02 | 0.435

Entries above whose target name starts with T or t:
gene knocked down | reagent | droplet/nuclear area B-score, replicate 1 | droplet/nuclear area B-score, replicate 2
Treh (GeneID 45368) | 1 | -0.563 | 1.05
Taf7 (GeneID 40934) | 1 | -1.15 | -0.494
Tpr2 (GeneID 34984) | 1 | 3.34 | -1.31

The list goes on:
gene knocked down | reagent | droplet/nuclear area B-score, replicate 1 | droplet/nuclear area B-score, replicate 2
Phf5a (GeneID 33909) | 1 | -0.823 | -2.21
CG9254 (GeneID 34773) | 1 | -0.27 | -0.0188
CG13894 (GeneID 38086) | 1 | 1.03 | 2.4
CG13894 (GeneID 38086) | 2 | 0.0903 | -0.277
msb1l (GeneID 35254) | 1 | -0.193 | 1.93
BCL7-like (GeneID 31890) | 1 | -0.234 | 1.04
CG13311 (GeneID 39008) | 1 | -1.12 | 0.0861
Cpr72Eb (GeneID 39815) | 1 | 0.0971 | 1.24
CG31647 (retired record) (GeneID 318869) | 1 | -1.61 | -1.33
CG1698 (GeneID 36006) | 1 | 0.335 | -0.256
betaTub56D (GeneID 37238) | 1 | -0.0104 | -0.221
CG32642 (GeneID 318137) | 1 | 1.2 | 2.08
CG7514 (GeneID 38571) | 1 | -0.682 | 0.342
CG5767 (GeneID 37055) | 1 | -0.874 | -0.522
Mlf (GeneID 36750) | 1 | 0.0141 | 0.0023
CG7252 (GeneID 39353) | 1 | -0.474 | 0.78
CG7252 (GeneID 39353) | 2 | -0.631 | -0.651
CG33307 (GeneID 2768914) | 1 | 0.814 | 0.195
CG8563 (GeneID 38826) | 1 | -0.48 | 1.33
CG10063 (GeneID 38764) | 1 | 0.795 | -0.548
Ndc80 (GeneID 32316) | 1 | 2.33 | 1.07
Ndc80 (GeneID 32316) | 2 | 2.7 | 0.22
CG11381 (GeneID 31067) | 1 | -1.01 | 0.827
CG14538 (retired record) (GeneID 34056) | 1 | -0.0408 | -0.00204
msps (GeneID 41952) | 1 | 1.11 | 4.54
ppk18 (GeneID 34295) | 1 | 1.36 | -0.129
Achl (GeneID 36605) | 1 | -0.523 | -1.4
Cyp6u1 (GeneID 35608) | 1 | -0.242 | 0.468
VhaSFD (GeneID 34997) | 1 | -0.0527 | -0.844
hpRNA:CR32205 (GeneID 3772102) | 1 | -0.474 | -0.288
CG12825 (GeneID 35726) | 1 | 1.38 | -1.67
CG17746 (GeneID 38400) | 1 | 2.59 | 0.0684
CG17746 (GeneID 38400) | 2 | -0.0229 | 1.78
Bili (GeneID 43019) | 1 | -0.692 | -0.297
run (GeneID 33059) | 1 | -1.02 | -2.18
run (GeneID 33059) | 2 | 0.0252 | 0.248
Dll (GeneID 37973) | 1 | -0.808 | -1.54
CG3735 (GeneID 37803) | 1 | -0.519 | -0.556
Cul3 (GeneID 34896) | 1 | -2.21 | -1.55
Cul3 (GeneID 34896) | 2 | -0.426 | -0.34
Cyp4aa1 (GeneID 36752) | 1 | -1.87 | 0.755
CG11356 (GeneID 32178) | 1 | 0.287 | -1.48
CG4768 (GeneID 32666) | 1 | 0.195 | -1.2
CG3662 (GeneID 33260) | 1 | 0.274 | 0.0212
CG8952 (GeneID 32525) | 1 | -0.0394 | -0.677
CG6791 (GeneID 41391) | 1 | -2.89 | 1.08
Cont (GeneID 40553) | 1 | -0.0701 | 0.0632
